A short description of the assay: qHTS Assay for Lipid Storage Modulators in Drosophila S3 Cells.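 On cell number change: cells counted by Cell Tracker Red CMTPX staining in the red channel.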 As to conditions: BODIPY lipid droplet fluorescence, 18-24 h; for cell number change: measured here: cell count max response, cells fed with added oleic acid. The method in brief:
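Drosophila S3 cells loaded with oleic acid (400 uM, as added) and compounds at several concentrations; lipid droplets imaged by 488-nm laser-scanning cytometry, 500–530 nm intensity and object ratio to cell channel. Percent activity normalized to 20 uM Triacsin C.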
Background: In qHTS, concentration-response curves come from the screen itself.

[1] abbreviates: measured here: lipid fluorescence (Fed channel) AC50, cells fed with added oleic acid.
Setting [2] is: measured here: cell number channel AC50, cells fed with added oleic acid.

Structures are written as SMILES. The list shows a part of the results. These are further read-outs of the screen, such as a control signal, another cell line or another target. No call is given for them. Compounds called inactive in the main read-out are mostly missing here. The note in brackets gives the kind of curve behind each potency; many fits are weak.

The results in this text go back to PubChem BioAssay AID2685 (National Center for Advancing Translational Sciences (NCATS), 2010).

On to `N#CCC(=O)Nc1ccc(C(=O)N2CCN(S(=O)(=O)c3ccc4ccccc4c3)CC2)cc1`, for which the cell number change was -7.09%.

Consider `O=C(Nc1ccc(NC(=O)C2CC2)nc1)c1cccs1`, for which the cell number change was -6.78%. Also, under setting [1], the AC50 was 0.00461 µM [falling, full curve, poor fit].

As to `Cc1ccc2c(c1)-c1c(ssc1=S)C(C)(C)N2C(=O)CSC1=NCCS1`, the cell number change was -130%. Moreover, the AC50 under setting [2] is 8.2 µM [falling, partial curve]. For the same compound, the AC50 under setting [1] was 11.6 µM [falling, partial curve].

As to `Nc1ncnc(N2CCOCC2)c1N`, the cell number change was found to be 35.2%. Further, the AC50 under setting [2] was 29.1 µM [rising, single point]. Also, under setting [1], the AC50 was 0.116 µM [rising, full curve, poor fit].

Regarding `CC(CC(=O)Nc1cccc(S(=O)(=O)N2CCCCC2)c1)c1ccccc1` (centres undefined), the cell number change was -9.21%. The AC50 under setting [1] was 0.259 µM [falling, partial curve, poor fit].

Regarding `CCOC(=O)N1CCN(C(=O)c2ccc(Cl)c(S(=O)(=O)N3CCCC3)c2)CC1`, the cell number change is 0.289%. For the same compound, the AC50 under setting [1] was 0.461 µM [rising, full curve].

With `CC1CCC(C(C)C)C(OC(=O)COC(=O)c2ccc(N)cc2)C1` (centres undefined), the cell number change was -70.9%. Besides, the AC50 under setting [2] is 9.2 µM [falling, partial curve]. The AC50 under setting [1] is 11.6 µM [falling, partial curve].

For the compound `c1ccc(Oc2nc(-c3cccnc3)nc3ccccc23)cc1`, the AC50 under setting [1] is 0.259 µM [rising, full curve].

`COc1ccccc1CNC(=O)COC(=O)c1cc([N+](=O)[O-])ccc1N1CCOCC1`: the cell number change is -47.3%. In addition, the concentration at half-maximal activity (AC50) under setting [2] was 14.6 µM [falling, partial curve, poor fit].

Consider `CCCN(Cc1ccccc1)S(=O)(=O)c1ccc(N2C(=O)CCC2=O)cc1`, for which the cell number change is -13.3%. In addition, the AC50 under setting [1] was 0.517 µM [falling, single point].

As to `CC1N(C)c2cc(NC(=O)c3ccco3)c(P(=O)(Nc3ccc([N+](=O)[O-])cc3)N3CCOCC3)cc2C1(C)C` (centres undefined), the cell number change was -2.77%.

For the compound `COc1c2c(cc3oc(=O)ccc13)OC(C)(C)C=C2`, the cell number change was 0.956%. Under setting [1], the AC50 was 2.31 µM [rising, partial curve].

With `O=C(NCc1ccccc1)C1CCC(CNS(=O)(=O)c2cccs2)CC1` (centres undefined), the cell number change is 1.8%. Besides, under setting [1], the AC50 was 29.1 µM [falling, single point].

For the compound `Cc1ccc2cc(CN(CC3CCCO3)C(=O)Nc3ccccc3F)c3nnnn3c2c1` (centres undefined), the cell number change worked out at 22.5%.

For the compound `Cn1cc(/C=C/C(=O)N2CCCC(C(=O)c3ccc(C(C)(C)C)cc3)C2)cn1` (centres undefined), the cell number change was -31.4%. Besides, the AC50 under setting [2] was 16.4 µM [falling, single point]. Under setting [1], the AC50 is 18.4 µM [falling, single point].

With `C=C1C(=O)O[C@@H]2C[C@@H](C)[C@@H]3C=CC(=O)[C@@]3(C)[C@@H](OC(C)=O)[C@H]12`, the cell number change is -71.7%. The AC50 under setting [1] is 5.8 µM [falling, full curve, poor fit].

Turning to `Cc1[nH]c2ccccc2c(=O)c1CN1CCCCC1`, the cell number change is -5.7%. Moreover, under setting [1], the AC50 was 20.6 µM [falling, single point].

On to `COc1ccc(CC(=O)OCc2cc(=O)n3cc(Br)ccc3n2)cc1OC`, for which the cell number change came out at 14.8%. The AC50 under setting [2] is 3.66 µM [rising, single point].

`Cc1ccc2nc(-c3ccccc3Cl)cc(C(=O)Nc3cc(C)on3)c2c1`: the cell number change is -68.4%. The AC50 under setting [2] is 18.4 µM [falling, partial curve]. The AC50 under setting [1] was 18.4 µM [falling, single point].

With `Cc1cccc(OCC(=O)O/N=C(\N)c2ccncc2)c1`, the cell number change was -18.4%. Besides, the AC50 under setting [1] is 5.62 µM [rising, single point].

As to `O=C(CN1C(=O)c2ccccc2S1(=O)=O)NCCc1ccccc1`, the cell number change worked out at 5.13%. Under setting [2], the AC50 is 0.103 µM [rising, full curve, poor fit].

Consider `O=C(CSc1cccc[n+]1[O-])Nc1ccc([N+](=O)[O-])cc1Cl`, for which the cell number change stood at 6.22%. Moreover, the AC50 under setting [1] is 7.31 µM [rising, single point].

On to `O=C(Nc1ccccc1F)Nc1cccc2ccc(O)cc12`, for which the cell number change stood at 0.875%. Besides, the AC50 under setting [1] was 32.6 µM [falling, single point].

In the case of `COc1ccc(NS(=O)(=O)c2cccc(C(=O)NCC(c3ccc(OC)cc3)N3CCOCC3)c2)cc1` (centres undefined), the cell number change is -1.74%.

For the compound `Cc1ccn2cc(-c3cccc(S(=O)(=O)N4CCCC4)c3)nc2c1`, the cell number change turned out to be 19.9%. Further, the AC50 under setting [2] is 0.00461 µM [rising, full curve, poor fit]. In addition, under setting [1], the AC50 was 6.51 µM [rising, single point].

As for `O=C(CCc1ccccc1)Nc1nc2n(n1)C(c1ccc(Cl)cc1)CC(=O)N2` (centres undefined), the cell number change was -3.79%. Under setting [1], the AC50 was 2.91 µM [rising, partial curve].

With `Cc1nc(SCC(=O)Nc2ccc3c(c2)OCCO3)nc(C)c1C`, the cell number change is -1.35%. For the same compound, under setting [2], the AC50 was 3.66 µM [rising, single point].

Regarding `COC(=O)c1ccc(Oc2nc(NC(C)C)nc(N(C)C)n2)cc1`, the AC50 under setting [1] is 0.231 µM [rising, full curve, poor fit].

With `NC(=O)c1c(NC(=O)Cc2ccccc2)sc2c1CCN(Cc1ccccc1)C2`, the cell number change is -7.49%. Under setting [1], the AC50 is 29.1 µM [falling, single point].

On to `O=C1NC2(CCCCCC2)Cc2ccccc21`, for which the cell number change is 8.91%. Further, under setting [1], the AC50 is 0.366 µM [falling, full curve].

On to `COc1ccc(-c2ncccc2O)cc1`, for which the cell number change is -66.9%. Further, the AC50 under setting [2] is 29.1 µM [falling, single point]. Under setting [1], the AC50 is 3.26 µM [falling, single point].

In the case of `CCc1cc2c(=O)c(Oc3ccccc3F)c(C)oc2c(CN(C)C)c1O`, the cell number change worked out at 14%. Also, the AC50 under setting [2] was 0.00366 µM [rising, full curve, poor fit].

As for `COc1ccc(Br)c(/C=N/NC(=O)COc2ccc(-c3ccccc3)cc2)c1`, the cell number change is 25.3%. In addition, the AC50 under setting [2] is 2.31 µM [rising, full curve, poor fit]. In addition, the AC50 under setting [1] was 6.51 µM [rising, single point].

As for `CCC(C(=O)NC1CCCCC1)n1c(SCc2ccccc2F)nc2ccncc21` (centres undefined), the cell number change was determined as 4.78%. Also, the AC50 under setting [1] is 0.411 µM [rising, full curve, poor fit].

In the case of `COCCNC(=O)CN1C(=O)COc2ccc(S(=O)(=O)N3CCCCCC3)cc21`, the AC50 runs as follows: under setting [2], 0.206 µM [rising, full curve, poor fit]; under setting [1], 29.1 µM [rising, single point].

Take `O=C1c2ccccc2CN1CCSC(=S)N1CCOCC1`: the cell number change stood at 6.82%. In addition, the AC50 under setting [2] was 0.146 µM [falling, partial curve, poor fit].

For orientation: AC50 means the concentration at which the activity in the assay is half-maximal. Low readings indicate greater potency, high ones weaker potency.
